In the supplement of paper PMC3682954:
Counter-ions that a name gives are not always drawn. ± gives the standard deviation of the averaged measurements. This is one part of the list. Repeats are few or missing, and single values can be far off.

Tested on: RAW 264.7
Assay: HMGB1-induced TNF-alpha production relative to HMGB1-stimulated control; higher = more TNF-alpha secretion (less inhibition)
Conditions: stimulus: HMGB1 5 ug/ml, 18 h
[1] = compound concentration: 1 ug/ml

| SMILES | HMGB1-induced TNF-alpha production (compound concentration: 3 uM) | HMGB1-induced TNF-alpha production [1] |
| --- | --- | --- |
| CC(=O)Nc1c(I)cc(I)c(C(=O)O)c1I | 79.4% | – |
| Cc1cc2cc3c(C)cc(=O)oc3c(C)c2o1 [Trioxsalen] | 92.9% | – |
| Cc1cc2cc3c(C)cc(=O)oc3c(C)c2o1 | 87.6% | – |
| CC(=O)Nc1nnc(S(N)(=O)=O)s1 [Acetazolamide] | 92.1 ± 2.7% | – |
| CC(=O)Nc1nnc(S(N)(=O)=O)s1 | 85.9% | – |
| CC(C)Oc1ccc2c(=O)c(-c3ccccc3)coc2c1 | 90.1 ± 25% | – |
| CC(C)Oc1ccc2c(=O)c(-c3ccccc3)coc2c1 [Ipriflavone] | – | 82.9% |
| O=C(O)CCC(C(=O)O)N1C(=O)c2ccccc2C1=O [L-Glutamic acid, N-phthaloyl-] | 93.7% | – |
| CC[C@H](C)[C@H](N)C(=O)O [L-Isoleucine] | – | 76.4% |
| NC[C@@H]1O[C@H](C23CC4CC(CC(C4)C2)C3)Cc2c1ccc(O)c2O | 72.4% | – |
| CCOc1nc2cccc(C(=O)O)c2n1Cc1ccc(-c2ccccc2-c2nnn[nH]2)cc1 [Candesartan] | 117 ± 5% | – |
| C[C@@](Cc1ccc(O)c(O)c1)(NN)C(=O)O | 92.7% | – |
| C[C@@](Cc1ccc(O)c(O)c1)(NN)C(=O)O [Carbidopa] | 101 ± 14% | – |
| CC1CCN(CC[C@H]2CCCN2S(=O)(=O)c2cccc(O)c2)CC1 | 111% | – |
| Nc1ncnc2c1ncn2[C@@H]1O[C@H](CO)[C@@H](O)[C@@H]1O [Vidarabine] | 108 ± 9.4% | – |
| Nc1ncnc2c1ncn2[C@@H]1O[C@H](CO)[C@@H](O)[C@@H]1O | 79.6% | – |
| CC(=O)OC[C@H]1O[C@@H]([S-])[C@H](OC(C)=O)[C@@H](OC(C)=O)[C@@H]1OC(C)=O.CCP(CC)CC.[Au+] [Auranofin] | 0.987 ± 2% | – |
| COc1cc(OC)c2c(C)cc(=O)oc2c1 [5,7-Dimethoxy-4-methylcoumarin] | – | 56.4% |
| CC(C)(S)C(N)C(=O)O (single isomer, unassigned; (+)) [(+)-Penicillamine] | – | 77.3% |
| N#Cc1ccc2c(c1)N(CCCN1CCC(O)CC1)c1ccccc1S2 | 73.4% | – |
| CCC1(c2ccccc2)C(=O)NCNC1=O | 82.6% | – |
| CCC1(c2ccccc2)C(=O)NCNC1=O [Primidone] | 100 ± 12% | – |
| O=C(O)/C=C/C(O)c1ccc(Cl)cc1 (configuration not stated) | 108% | – |
| COC(=O)C1=C(C)NC(C)=C(C(=O)OC(C)(C)CN(C)CCC(c2ccccc2)c2ccccc2)C1c1cccc([N+](=O)[O-])c1 (configuration not stated) [Lercanidipine hydrochloride hemihydrate] | 82.5% | – |
| C[C@]12CCC(=O)C=C1CC[C@@H]1[C@@H]2CC[C@@]2(C)[C@H]1CC[C@]2(O)C(=O)CO [Cortexolone] | 73.8% | – |
| CN(C)CCC(c1ccc(Br)cc1)c1ccccn1 (configuration not stated) [Brompheniramine maleate] | 88.1% | – |
| CN(C)CCC(c1ccc(Br)cc1)c1ccccn1 (configuration not stated) | 86.3% | – |

Taken from above (7 entries):

| SMILES | HMGB1-induced TNF-alpha production (compound concentration: 3 uM) | HMGB1-induced TNF-alpha production [1] |
| --- | --- | --- |
| CC(=O)OC[C@H]1O[C@@H]([S-])[C@H](OC(C)=O)[C@@H](OC(C)=O)[C@@H]1OC(C)=O.CCP(CC)CC.[Au+] [Auranofin] | 0.987 ± 2% | – |
| COc1cc(OC)c2c(C)cc(=O)oc2c1 [5,7-Dimethoxy-4-methylcoumarin] | – | 56.4% |
| CC(C)(S)C(N)C(=O)O (single isomer, unassigned; (+)) [(+)-Penicillamine] | – | 77.3% |
| N#Cc1ccc2c(c1)N(CCCN1CCC(O)CC1)c1ccccc1S2 | 73.4% | – |
| CCC1(c2ccccc2)C(=O)NCNC1=O | 82.6% | – |
| CCC1(c2ccccc2)C(=O)NCNC1=O [Primidone] | 100 ± 12% | – |
| O=C(O)/C=C/C(O)c1ccc(Cl)cc1 (configuration not stated) | 108% | – |
